In this assay the target is T1, SATB2 (mouse (endogenous in cortex)) (UniProt Q8VI24).
T1 sequence: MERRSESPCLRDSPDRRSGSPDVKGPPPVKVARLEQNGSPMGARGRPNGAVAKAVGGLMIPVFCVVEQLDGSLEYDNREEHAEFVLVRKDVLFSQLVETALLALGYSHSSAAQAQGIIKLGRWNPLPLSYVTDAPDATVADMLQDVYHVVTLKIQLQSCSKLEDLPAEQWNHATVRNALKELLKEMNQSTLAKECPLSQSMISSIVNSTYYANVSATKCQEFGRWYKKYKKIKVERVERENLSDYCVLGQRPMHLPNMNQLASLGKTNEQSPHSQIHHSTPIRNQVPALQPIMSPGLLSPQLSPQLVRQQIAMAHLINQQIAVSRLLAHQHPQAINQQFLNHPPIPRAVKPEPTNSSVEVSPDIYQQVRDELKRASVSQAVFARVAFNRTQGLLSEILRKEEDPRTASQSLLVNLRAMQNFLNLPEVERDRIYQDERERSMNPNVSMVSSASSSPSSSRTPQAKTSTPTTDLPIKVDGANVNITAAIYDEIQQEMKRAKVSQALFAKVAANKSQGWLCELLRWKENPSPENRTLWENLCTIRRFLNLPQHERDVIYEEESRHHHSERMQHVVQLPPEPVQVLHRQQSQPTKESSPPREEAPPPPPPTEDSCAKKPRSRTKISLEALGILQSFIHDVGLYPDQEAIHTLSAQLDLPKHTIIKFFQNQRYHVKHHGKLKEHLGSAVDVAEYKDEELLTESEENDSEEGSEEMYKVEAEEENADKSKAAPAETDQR
In words: co-IP; anti-SATB2 on protein G Dynabeads, 500 μg of cortical lysate of control and SATB2-deficient mice, overnight 4°C; immunoblot with antibodies against the partners. Background: In western blotting, separated proteins are transferred to a membrane and probed.

These are yes or no findings as the source states them, for the method shown. Binding seen in cells or lysates may run through a third protein. Binding can be weak; no strength is given.

LAP2 (mouse (endogenous in cortex)): the binding result is “binds”.

The values above are taken from article PMC6364870.
